{"source": "the supplement of paper PMC4604168 (melanoma cell lines)", "note": "Some of the results follow. Single values are uncertain, as repeats are few or missing.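 Imaging used 1,536-well plates; nuclei positive for cleaved PARP by antibody were divided by total DNA-stained nuclei to yield the apoptosis fraction. Doses for screening kept most cells viable, and cell lines differ markedly in resting and induced cleaved-PARP levels.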", "data": [{"system": "CBRC017 (line from a melanoma biopsy)", "assay": "cleaved PARP positive nuclei fraction relative to DMSO control; melanoma cells; higher = more apoptosis", "settings": "library dose: low library concentration; 72 h", "units": {"cleaved PARP positive nuclei fraction": "%"}, "values": [{"molecule": "COc1cc([C@@H]2c3cc4c(cc3[C@@H](O[C@@H]3O[C@@H]5CO[C@@H](C)O[C@H]5[C@H](O)[C@H]3O)[C@H]3COC(=O)[C@H]23)OCO4)cc(OC)c1O", "note": "[etoposide] + C[C@@H]1CCN(C(=O)CC#N)C[C@@H]1N(C)c1ncnc2[nH]ccc12 [CP690550] (first compound 0.02 µM, partner dose 1 µM)", "cleaved PARP positive nuclei fraction": 80.3}, {"molecule": "Cc1cc(Nc2cc(N3CCN(C)CC3)nc(Sc3ccc(NC(=O)C4CC4)cc3)n2)n[nH]1", "note": "[Tozasertib] + CN(C)S(=O)(=O)c1ccc2c(c1)/C(=C/c1cc3c([nH]1)CCCC3)C(=O)N2 [SU6656] (first compound 0.006 µM, partner dose 0.4 µM)", "cleaved PARP positive nuclei fraction": 84.3}, {"molecule": "O=C(/C=C/c1cccnc1)NCCCCC1CCN(C(=O)c2ccccc2)CC1", "note": "+ CN(NC(=O)CC(=O)NN(C)C(=S)c1ccccc1)C(=S)c1ccccc1 [STA4783] (first compound 0.01 µM, partner dose 0.006 µM)", "cleaved PARP positive nuclei fraction": 981}, {"molecule": "O=C(Nc1cc(C(F)(F)F)cc(C(F)(F)F)c1)c1cc(Cl)ccc1O", "note": "+ CN(NC(=O)CC(=O)NN(C)C(=S)c1ccccc1)C(=S)c1ccccc1 [STA4783] (first compound 0.016 µM, partner dose 0.006 µM)", "cleaved PARP positive nuclei fraction": 213}, {"molecule": "COc1cc([C@@H]2c3cc4c(cc3[C@@H](O[C@@H]3O[C@@H]5CO[C@@H](C)O[C@H]5[C@H](O)[C@H]3O)[C@H]3COC(=O)[C@H]23)OCO4)cc(OC)c1O", "note": "[etoposide] + NC(=O)Nc1cc(-c2cccc(F)c2)sc1C(=O)N[C@H]1CCCNC1 [AZD7762] (first compound 0.02 µM, partner dose 0.02 µM)", "cleaved PARP positive nuclei fraction": 91.7}, {"molecule": "CCCCCCCCCCCCCCCCCCOP(=O)([O-])OC1CC[N+](C)(C)CC1", "note": "[Perifosine] + NCC(=O)Nc1ccc(-n2nc(C(F)(F)F)cc2-c2ccc3c(ccc4ccccc43)c2)cc1 [OSU03012] (first compound 0.4 µM, partner dose 1 µM)", "cleaved PARP positive nuclei fraction": 99.2}, {"molecule": "CCCCCCCCCCCCCCCCCCOP(=O)([O-])OC1CC[N+](C)(C)CC1", "note": "[Perifosine] + O=C(Nc1cccc(Cl)c1)Nc1ncc(CCNc2ncnc3ccsc23)s1 [SNS314] (first compound 0.4 µM, partner dose 0.0008 µM)", "cleaved PARP positive nuclei fraction": 158}, {"molecule": "O=C(/C=C/c1cccnc1)NCCCCC1CCN(C(=O)c2ccccc2)CC1", "note": "+ Cc1cc(N2CCOCC2)cc2[nH]c(-c3c(NC[C@@H](O)c4cccc(Cl)c4)cc[nH]c3=O)nc12 [BMS536924] (first compound 0.01 µM, partner dose 0.2 µM)", "cleaved PARP positive nuclei fraction": 767}, {"molecule": "COc1cc([C@@H]2c3cc4c(cc3[C@@H](O[C@@H]3O[C@@H]5CO[C@@H](C)O[C@H]5[C@H](O)[C@H]3O)[C@H]3COC(=O)[C@H]23)OCO4)cc(OC)c1O", "note": "[etoposide] + OCCn1cc(-c2cnc3nnn(Cc4ccc5ncccc5c4)c3n2)cn1 [PF04217903] (first compound 0.02 µM, partner dose 1 µM)", "cleaved PARP positive nuclei fraction": 90.8}, {"molecule": "COc1cc([C@@H]2c3cc4c(cc3[C@@H](O[C@@H]3O[C@@H]5CO[C@@H](C)O[C@H]5[C@H](O)[C@H]3O)[C@H]3COC(=O)[C@H]23)OCO4)cc(OC)c1O", "note": "[etoposide] + Cc1cc(N2CCOCC2)cc2[nH]c(-c3c(NC[C@@H](O)c4cccc(Cl)c4)cc[nH]c3=O)nc12 [BMS536924] (first compound 0.02 µM, partner dose 0.2 µM)", "cleaved PARP positive nuclei fraction": 99.3}, {"molecule": "O=c1[nH]nc(Sc2ncc([N+](=O)[O-])s2)n1-c1ccc2c(c1)OCCO2", "note": "+ O=C(CCCCCCC(=O)Nc1ccccc1)NO [vorinostat] (first compound 0.2 µM, partner dose 0.08 µM)", "cleaved PARP positive nuclei fraction": 88.1}, {"molecule": "Cc1ccc(Nc2nccc(N(C)c3ccc4c(C)n(C)nc4c3)n2)cc1S(N)(=O)=O", "note": "[Pazopanib] + CO[C@@H]1[C@H](N(C)C(=O)c2ccccc2)C[C@H]2O[C@]1(C)n1c3ccccc3c3c4c(c5c6ccccc6n2c5c31)C(=O)NC4 [Midostaurin] (first compound 0.4 µM, partner dose 0.08 µM)", "cleaved PARP positive nuclei fraction": 191}, {"molecule": "N#CC[C@H](C1CCCC1)n1cc(-c2ncnc3[nH]ccc23)cn1", "note": "[ruxolitinib] + Cc1cc(N2CCOCC2)cc2[nH]c(-c3c(NC[C@@H](O)c4cccc(Cl)c4)cc[nH]c3=O)nc12 [BMS536924] (first compound 1 µM, partner dose 0.2 µM)", "cleaved PARP positive nuclei fraction": 99.8}, {"molecule": "COc1cc([C@@H]2c3cc4c(cc3[C@@H](O[C@@H]3O[C@@H]5CO[C@@H](C)O[C@H]5[C@H](O)[C@H]3O)[C@H]3COC(=O)[C@H]23)OCO4)cc(OC)c1O", "note": "[etoposide] + CO[C@@H]1[C@H](N(C)C(=O)c2ccccc2)C[C@H]2O[C@]1(C)n1c3ccccc3c3c4c(c5c6ccccc6n2c5c31)C(=O)NC4 [Midostaurin] (first compound 0.02 µM, partner dose 0.08 µM)", "cleaved PARP positive nuclei fraction": 90.6}, {"molecule": "COc1cc([C@@H]2c3cc4c(cc3[C@@H](O[C@@H]3O[C@@H]5CO[C@@H](C)O[C@H]5[C@H](O)[C@H]3O)[C@H]3COC(=O)[C@H]23)OCO4)cc(OC)c1O", "note": "[etoposide] + O=C(Nc1cccc(Cl)c1)Nc1ncc(CCNc2ncnc3ccsc23)s1 [SNS314] (first compound 0.02 µM, partner dose 0.0008 µM)", "cleaved PARP positive nuclei fraction": 106}, {"molecule": "CCCCCCCCCCCCCCCCCCOP(=O)([O-])OC1CC[N+](C)(C)CC1", "note": "[Perifosine] + NC(=O)Nc1cc(-c2cccc(F)c2)sc1C(=O)N[C@H]1CCCNC1 [AZD7762] (first compound 0.4 µM, partner dose 0.02 µM)", "cleaved PARP positive nuclei fraction": 91.6}, {"molecule": "O=C(/C=C/c1cccnc1)NCCCCC1CCN(C(=O)c2ccccc2)CC1", "note": "+ CO[C@@H]1[C@H](N(C)C(=O)c2ccccc2)C[C@H]2O[C@]1(C)n1c3ccccc3c3c4c(c5c6ccccc6n2c5c31)C(=O)NC4 [Midostaurin] (first compound 0.01 µM, partner dose 0.08 µM)", "cleaved PARP positive nuclei fraction": 1500}, {"molecule": "CC[C@]1(O)C[C@H]2CN(CCc3c([nH]c4ccccc34)[C@@](C(=O)OC)(c3cc4c(cc3OC)N(C=O)[C@H]3[C@@](O)(C(=O)OC)[C@H](OC(C)=O)[C@]5(CC)C=CCN6CC[C@]43[C@@H]65)C2)C1", "note": "[vincristine] + CN(C)S(=O)(=O)c1ccc2c(c1)/C(=C/c1cc3c([nH]1)CCCC3)C(=O)N2 [SU6656] (first compound 0.0001 µM, partner dose 0.4 µM)", "cleaved PARP positive nuclei fraction": 86}, {"molecule": "O=C(/C=C/c1cccnc1)NCCCCC1CCN(C(=O)c2ccccc2)CC1", "note": "+ CN(C)S(=O)(=O)c1ccc2c(c1)/C(=C/c1cc3c([nH]1)CCCC3)C(=O)N2 [SU6656] (first compound 0.01 µM, partner dose 0.4 µM)", "cleaved PARP positive nuclei fraction": 571}, {"molecule": "Cc1ccc(Nc2nccc(N(C)c3ccc4c(C)n(C)nc4c3)n2)cc1S(N)(=O)=O", "note": "[Pazopanib] + NC(=O)Nc1cc(-c2cccc(F)c2)sc1C(=O)N[C@H]1CCCNC1 [AZD7762] (first compound 0.4 µM, partner dose 0.02 µM)", "cleaved PARP positive nuclei fraction": 91.5}, {"molecule": "Cc1cn(-c2cc(NC(=O)c3ccc(C)c(Nc4nccc(-c5cccnc5)n4)c3)cc(C(F)(F)F)c2)cn1", "note": "[nilotinib] + NC(=O)Nc1cc(-c2cccc(F)c2)sc1C(=O)N[C@H]1CCCNC1 [AZD7762] (first compound 0.2 µM, partner dose 0.02 µM)", "cleaved PARP positive nuclei fraction": 65.8}, {"molecule": "CCCCCCCCCCCCCCCCCCOP(=O)([O-])OC1CC[N+](C)(C)CC1", "note": "[Perifosine] + C[C@@H]1CCN(C(=O)CC#N)C[C@@H]1N(C)c1ncnc2[nH]ccc12 [CP690550] (first compound 0.4 µM, partner dose 1 µM)", "cleaved PARP positive nuclei fraction": 88.4}, {"molecule": "N#CC[C@H](C1CCCC1)n1cc(-c2ncnc3[nH]ccc23)cn1", "note": "[ruxolitinib] + C[C@@H]1CCN(C(=O)CC#N)C[C@@H]1N(C)c1ncnc2[nH]ccc12 [CP690550] (first compound 1 µM, partner dose 1 µM)", "cleaved PARP positive nuclei fraction": 69.9}, {"molecule": "COc1cc([C@@H]2c3cc4c(cc3[C@@H](O[C@@H]3O[C@@H]5CO[C@@H](C)O[C@H]5[C@H](O)[C@H]3O)[C@H]3COC(=O)[C@H]23)OCO4)cc(OC)c1O", "note": "[etoposide] + Cn1cncc1[C@@](N)(c1ccc(Cl)cc1)c1ccc2c(c1)c(-c1cccc(Cl)c1)cc(=O)n2C [tipifarnib] (first compound 0.02 µM, partner dose 0.01 µM)", "cleaved PARP positive nuclei fraction": 302}, {"molecule": "N#CC[C@H](C1CCCC1)n1cc(-c2ncnc3[nH]ccc23)cn1", "note": "[ruxolitinib] + Cc1ccc(NC(=O)c2cccc(N(C)C)c2)cc1NC(=O)c1ccc(O)cc1 [ZM336372] (first compound 1 µM, partner dose 2 µM)", "cleaved PARP positive nuclei fraction": 531}, {"molecule": "N#CC[C@H](C1CCCC1)n1cc(-c2ncnc3[nH]ccc23)cn1", "note": "[ruxolitinib] + COc1cc2c(Oc3ccc4[nH]c(C)cc4c3F)ncnc2cc1OCCCN1CCCC1 [cediranib] (first compound 1 µM, partner dose 0.4 µM)", "cleaved PARP positive nuclei fraction": 106}, {"molecule": "O=c1[nH]nc(Sc2ncc([N+](=O)[O-])s2)n1-c1ccc2c(c1)OCCO2", "note": "+ O=C(O)c1ccc(-c2c[nH]c3ncc(-c4ccccc4)cc23)cc1C1CCCC1 [GSK650394] (first compound 0.2 µM, partner dose 0.16 µM)", "cleaved PARP positive nuclei fraction": 82.5}, {"molecule": "Cc1cc(Nc2cc(N3CCN(C)CC3)nc(Sc3ccc(NC(=O)C4CC4)cc3)n2)n[nH]1", "note": "[Tozasertib] + COc1cc2c(Oc3ccc4[nH]c(C)cc4c3F)ncnc2cc1OCCCN1CCCC1 [cediranib] (first compound 0.006 µM, partner dose 0.4 µM)", "cleaved PARP positive nuclei fraction": 73.6}]}]}
